Experimental data as given in patent US9029414B2, “Triterpenoid compounds and methods of use thereof” (Biotechnology Research Corporation, priority 2008, dated 2015).
Some results were stated once for a whole list of compounds, not compound by compound.

Tested on: cortical neurons
Test: Cortical neuron survival assay against NMDA excitotoxicity (LDH)
Format: cell-based, Sprague-Dawley rats
Conditions: 30 μM or otherwise indicated, 24 hours prior to NMDA; LDH 24 hours after NMDA
Protocol: FIG. 12. Derivatives of DA001 rescue the cortical neurons from NMDA excitotoxicity. Cortical neurons were treated with compounds derived from of DA001 (30 μM) 24 hours prior to NMDA treatment. LDH released into the medium were measured 24 hours after NMDA treatment. Data are expressed as mean±s.e.m. and compared to solvent control (DMSO). *=P<0.05.
Hippocampal neurons/cortical neurons were prepared from embryonic day 18 Sprague-Dawley rats. […] Afterwards, cells were incubated in growth medium for 18-24 hours and detected with Cytotoxicity Detection Kit (1644793, Roche).
Cortical neurons were treated with DA021 or DA034 and subsequently subjected to varying concentrations of NMDA. […] LDH release into the medium was then measured.
Compounds with strong protective effect (>80% survival) against NMDA excitotoxicity are prototype DA001, derivatives DA010, DA021, DA034, DA040, DA081 and DA088. […] LDH released into the medium were measured 24 hours after NMDA treatment. Data are expressed as averaged percentage of cell survival (±s.e.m) calculated against solvent control (DMSO) and compared to no NMDA control (set as 100% survival). […]

C=C(C)[C@@H]1CC[C@]2(C(=O)O)CC[C@]3(C)C(CC[C@@H]4[C@@]5(C)CC[C@H](O)C(C)(C)[C@@H]5CC[C@]43C)[C@@H]12 (stereo partly shown) [DA032]
protective effect against NMDA excitotoxicity (% cell survival): moderate (moderate effects (50-80%))
